Experimental data: PubChem BioAssay AID1259415 (National Center for Advancing Translational Sciences (NCATS), 2018)
In all, about 410,000 compounds went through this assay and about 18,000 (4.4%) were called active. Inconclusive means that the source gave no clear call. Such entries were picked first, then a sample of the others. No stated cut-off is given here; in the data, active means activity change below about -60%; inconclusive means no clear call, values can overlap the other calls; inactive means above about -39%.

assay: qHTS Assay for inhibitors of the human cytomegalovirus (HCMV); details: HFF cells, HCMV-luciferase reporter, 72 h; at 57.5 µM; active compounds read low
Summary of the method: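 Compounds were evaluated in HFFs infected with an HCMV luciferase reporter virus (MOI 1 PFU/cell). Luciferase in lysates collected 72 h post infection served as the replication measure.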
On the % scale 0 is the no-effect control and ±100 the full control effect.

Compound	activity change, negative = inhibition
O=C(NCCCCc1ccccc1)Nc1ccc(F)cc1	inactive: -29.7%
CCOC(=O)N1CCC(NC(=O)c2ccc3c(c2)N(Cc2ccc(F)cc2)CCS3)CC1	inactive: -24.7%
COc1ccc(CN2CCN(CCCCOc3ccc(Cl)cc3)CC2)c(OC)c1OC	inconclusive: -45%
COc1ccc(Cc2noc(CN3CCN(Cc4csc(C)n4)CC3)n2)cc1OC	inconclusive: -50.6%
COc1ccc(N/C=C/C(=O)c2ccccc2)cc1	inactive: 56.9%
CCN(c1ccccc1)S(=O)(=O)c1ccc(Cl)c(C(=O)NC2CCN(Cc3ccccc3)CC2)c1	active: -70.4%
Cc1ccc(S(=O)(=O)N(CC2CO2)c2ccccc2[N+](=O)[O-])cc1 (centres undefined)	inconclusive: -54.7%
Cc1ccc(CN2C(=O)C(=O)c3cc(C)ccc32)cc1	inconclusive: -43.9%
COc1cc(OC)c(C(=O)c2ccccc2[N+](=O)[O-])c(OC)c1	inactive: -26.7%
CCC1(c2ccccc2)CN(C)C1=O (centres undefined)	active: -79.4%
O=C1CN(c2nc(-c3ccccc3)c3cc(Cl)ccc3n2)c2ccccc2N1	inconclusive: -45.5%
COc1ccc(N(C(C)C(=O)Nc2ccc(S(=O)(=O)N3CCCCC3)cc2)S(C)(=O)=O)cc1 (centres undefined)	inactive: 29.5%
CC(C)C#Cc1cnc2c(c1)C(=O)N([C@H](C)CO)C[C@@H](C)[C@H](CN(C)C(=O)Nc1ccccc1F)O2	inactive: -0.75%
COC(=O)Cn1cnc2ccccc2c1=O	inactive: 65.5%
COc1ccc(Nc2nc(-c3cccs3)cs2)cc1	inactive: 162%
O=C(/C=C/c1ccc(F)cc1)Nc1ccc(S(=O)(=O)Nc2ncccn2)cc1	inconclusive: -46%
Cc1ccc(-n2nnnc2-c2cnc(N3CCCC3)nc2C(F)(F)F)cc1	inconclusive: -48.4%
Cc1cc(C)c2c(=O)n3c(nc2c1)C(Cc1ccc(O)cc1)NC(=O)c1cc2ccccc2cc1-3 (centres undefined)	inconclusive: -47%
CCSc1nnc(NC(=O)Nc2cccc(C)c2)s1	inactive: -25.6%
c1ccc2c(c1)ncn2-c1ccc(-c2ccnc(-c3ccncc3)n2)cc1	inconclusive: -51.8%
O=C(O)CCn1cc(/C=C/C(=O)c2ccc(Cl)cc2)c(-c2cccc(Br)c2)n1	inconclusive: -43.5%
Cc1[nH]c(-c2ccc(F)cc2)cc1C(=O)N1CCN(c2ccccc2F)CC1	inactive: 29.5%
Cn1c(CCN2CCCC2)nc2cc(NS(=O)(=O)c3ccc(Cl)cc3)ccc21	inconclusive: -46.9%
CC(=O)Nc1c(C)nn(-c2ccccc2)c1N1CCC(C(=O)Nc2ccc(Cl)cc2C)CC1	inactive: 58.2%

Random excerpt: two compounds from above
Compound	activity change, negative = inhibition
CC(C)C#Cc1cnc2c(c1)C(=O)N([C@H](C)CO)C[C@@H](C)[C@H](CN(C)C(=O)Nc1ccccc1F)O2	inactive: -0.75%
Cc1cc(C)c2c(=O)n3c(nc2c1)C(Cc1ccc(O)cc1)NC(=O)c1cc2ccccc2cc1-3 (centres undefined)	inconclusive: -47%
